The text below walks through data of article PMC8558168, “Reverse chemical ecology in a moth: machine learning on odorant receptors identifies new behaviorally active agonists” (Cellular and Molecular Life Sciences: CMLS, 2021).

One data set deals with T1, SlitOR25.
T1 construct: gene OR25; full-length UAS transgene driven by Or22a-Gal4 in Drosophila melanogaster Δhalo ab3A empty neurons; endogenous fly Orco; with Odorant receptor coreceptor (Drosophila melanogaster, endogenous)
As to the kind of experiment: single sensillum recording, Drosophila ab3A neurons. It is filed as cell-based, Spodoptera littoralis. The note with it: agonist; 10 μL of 10^-2 dilution in paraffin oil on filter paper, 500 ms pulse.
Take `CCCCCC(C)O` (centres unmarked) [2-heptanol]: the “SSR response at 10^-2 dilution” value is recorded as above 100 spikes.s^-1.
The same measure, in the same setting: the same measure for `N#CCc1ccccc1` [benzyl cyanide]: above 100 spikes.s^-1.

For the next data set, the system named is T2, SlitOR24.
T2 construct: gene OR24; full-length UAS transgene driven by Or22a-Gal4 in Drosophila melanogaster Δhalo ab3A empty neurons; endogenous fly Orco; with Odorant receptor coreceptor (Drosophila melanogaster, endogenous)
The data set is described as above. It is filed as cell-based, Spodoptera littoralis. The note with it: agonist; 10 μL of 10^-2 dilution in paraffin oil on filter paper, 500 ms pulse.
Turning to `CCCCC(C)O` (centres unmarked) [2-hexanol], the “SSR response at 10^-2 dilution” value is given as above 100 spikes.s^-1.
With `CCCCCO` [1-pentanol], the “SSR response at 10^-2 dilution” value was above 100 spikes.s^-1.
Same read-out and setting: the same measure for `CC/C=C/CCO` [(E)-3-hexenol]: above 100 spikes.s^-1; for `OCCc1ccccc1` [2-phenylethanol]: above 100 spikes.s^-1; for `CCCCCC(C)O` (centres unmarked) [2-heptanol]: above 100 spikes.s^-1.
Consider `CCC/C=C\CO` [(Z)-2-hexenol], for which the “SSR response at 10^-2 dilution” value is recorded as above 100 spikes.s^-1.
